This data set relates to peptides in gingival brush samples. The data set can be described thus: Protein and peptide profiling of gingival brush samples (LC-MS/MS), TABLE 23. It counts as in vivo, human. The note with it: peptide abundance, gingival brush samples; for Mean Cntl Bsl / Mean Cntl Wk3: control regimen; for Mean Cntl Bsl / Mean TrtBsl: baseline; for Mean Cntl Wk3 / Mean TrtWk3: week 3; for Mean TrtBsl / Mean TrtWk3: treatment regimen.

B1: PSG8_HUMAN (protein, UniProt Q9UQ74 35-426, looked up)
Pregnancy-specific …: QVTIEAQPTKVSEGKDVLLLVHNLPQNLTGYIWYKGQIRDLYHYITSYVVDGQIIIYGPAYSGRETIYSNASLLIQNVTQEDAGSYTLHIIMGGDENRGVTGHFTFTLYLETPKPSISSSKLNPREAMEAVSLTCDPETPDASYLWWMNGQSLPMSHRLQLSETNRTLFLLGVTKYTAGPYECEIRNPVSASRSDPFTLNLLPKLPKPYITINNLKPRENKDVLNFTCEPKSENYTYIWWLNGQSLPVSPRVKRPIENRILILPSVTRNETGPYQCEIRDQYGGIRSYPVTLNVLYGPDLPRIYPSFTYYRSGEVLYLSCSADSNPPAQYSWTINGKFQLSGQKLFIPQITTKHSGLYACSVRNSATGKESSKSMTVKVSGKRIPVSLAIGI
With B1, the “Mean Cntl Bsl” value was found to be 8855.0, the “Mean Cntl Wk3” value is 11333.1, the “Mean TrtBsl” value came out at 7117.7 and the “Mean TrtWk3” value was 13237.7.

B2: PRDX6_HUMAN (protein, UniProt P30041 2-224, looked up)
Peroxiredoxin-6: PGGLLLGDVAPNFEANTTVGRIRFHDFLGDSWGILFSHPRDFTPVCTTELGRAAKLAPEFAKRNVKLIALSIDSVEDHLAWSKDINAYNCEEPTEKLPFPIIDDRNRELAILLGMLDPAEKDEKGMPVTARVVFVFGPDKKLKLSILYPATTGRNFDEILRVVISLQLTAEKRVATPVDWKDGDSVMVLPTIPEEEAKKLFPKGVFTKELPSGKKYLRYTPQP
For the molecule B2, the “Mean Cntl Bsl” value came to 1477.7, the “Mean Cntl Wk3” value was 2558.2, the “Mean TrtBsl” value worked out at 1376.3 and the “Mean TrtWk3” value was 2985.7.

B3: PRDX2_HUMAN (protein, UniProt P32119 2-198, looked up)
Peroxiredoxin-2: ASGNARIGKPAPDFKATAVVDGAFKEVKLSDYKGKYVVLFFYPLDFTFVCPTEIIAFSNRAEDFRKLGCEVLGVSVDSQFTHLAWINTPRKEGGLGPLNIPLLADVTRRLSEDYGVLKTDEGIAYRGLFIIDGKGVLRQITVNDLPVGRSVDEALRLVQAFQYTDEHGEVCPAGWKPGSDTIKPNVDDSKEYFSKHN
As to B3, the “Mean Cntl Bsl” value is listed as 2938.5, the “Mean Cntl Wk3” value was 6338.7, the “Mean TrtBsl” value was found to be 4840.4 and the “Mean TrtWk3” value is reported as 9887.5.

B4: PGKl_HUMAN (protein, UniProt P00558 2-417, looked up)
Phosphoglycerate kinase 1: SLSNKLTLDKLDVKGKRVVMRVDFNVPMKNNQITNNQRIKAAVPSIKFCLDNGAKSVVLMSHLGRPDGVPMPDKYSLEPVAVELKSLLGKDVLFLKDCVGPEVEKACANPAAGSVILLENLRFHVEEEGKGKDASGNKVKAEPAKIEAFRASLSKLGDVYVNDAFGTAHRAHSSMVGVNLPQKAGGFLMKKELNYFAKALESPERPFLAILGGAKVADKIQLINNMLDKVNEMIIGGGMAFTFLKVLNNMEIGTSLFDEEGAKIVKDLMSKAEKNGVKITLPVDFVTADKFDENAKTGQATVASGIPAGWMGLDCGPESSKKYAEAVTRAKQIVWNGPVGVFEWEAFARGTKALMDEVVKATSRGCITIIGGGDTATCCAKWNTEDKVSHVSTGGGASLELLEGKVLPGVDALSNI
As for B4, the “Mean Cntl Bsl” value came to 4884.9, the “Mean Cntl Wk3” value was determined as 5952.9, the “Mean TrtBsl” value is reported as 5340.0 and the “Mean TrtWk3” value is given as 8397.1.

B5: PRDX1_HUMAN (protein, UniProt Q06830 2-199, looked up)
Peroxiredoxin-1: SSGNAKIGHPAPNFKATAVMPDGQFKDISLSDYKGKYVVFFFYPLDFTFVCPTEIIAFSDRAEEFKKLNCQVIGASVDSHFCHLAWVNTPKKQGGLGPMNIPLVSDPKRTIAQDYGVLKADEGISFRGLFIIDDKGILRQITVNDLPVGRSVDETLRLVQAFQFTDKHGEVCPAGWKPGSDTIKPDVQKSKEYFSKQK
For B5, the “Mean Cntl Bsl” value was found to be 16697.8, the “Mean Cntl Wk3” value amounted to 26985.8, the “Mean TrtBsl” value came out at 14423.1 and the “Mean TrtWk3” value is recorded as 30893.5.

B6: AL9A1_HUMAN (protein, UniProt P49189 1-494, looked up)
4-trimethylaminobutyraldehyde …: MSTGTFVVSQPLNYRGGARVEPADASGTEKAFEPATGRVIATFTCSGEKEVNLAVQNAKAAFKIWSQKSGMERCRILLEAARIIREREDEIATMECINNGKSIFEARLDIDISWQCLEYYAGLAASMAGEHIQLPGGSFGYTRREPLGVCVGIGAWNYPFQIASWKSAPALACGNAMVFKPSPFTPVSALLLAEIYSEAGVPPGLFNVVQGGAATGQFLCQHPDVAKVSFTGSVPTGMKIMEMSAKGIKPVTLELGGKSPLIIFSDCDMNNAVKGALMANFLTQGQVCCNGTRVFVQKEILDKFTEEVVKQTQRIKIGDPLLEDTRMGPLINRPHLERVLGFVKVAKEQGAKVLCGGDIYVPEDPKLKDGYYMRPCVLTNCRDDMTCVKEEIFGPVMSILSFDTEAEVLERANDTTFGLAAGVFTRDIQRAHRVVAELQAGTCFINNYNVSPVELPFGGYKKSGFGRENGRVTIEYYSQLKTVCVEMGDVESAF
For the molecule B6, the “Mean Cntl Bsl” value stood at 4689.8, the “Mean Cntl Wk3” value stood at 8624.4, the “Mean TrtBsl” value is on record as 5984.7 and the “Mean TrtWk3” value is 8802.5.

B7: CH60_HUMAN (protein, UniProt P10809 27-573, looked up)
60 kDa heat shock protein, …: AKDVKFGADARALMLQGVDLLADAVAVTMGPKGRTVIIEQSWGSPKVTKDGVTVAKSIDLKDKYKNIGAKLVQDVANNTNEEAGDGTTTATVLARSIAKEGFEKISKGANPVEIRRGVMLAVDAVIAELKKQSKPVTTPEEIAQVATISANGDKEIGNIISDAMKKVGRKGVITVKDGKTLNDELEIIEGMKFDRGYISPYFINTSKGQKCEFQDAYVLLSEKKISSIQSIVPALEIANAHRKPLVIIAEDVDGEALSTLVLNRLKVGLQVVAVKAPGFGDNRKNQLKDMAIATGGAVFGEEGLTLNLEDVQPHDLGKVGEVIVTKDDAMLLKGKGDKAQIEKRIQEIIEQLDVTTSEYEKEKLNERLAKLSDGVAVLKVGGTSDVEVNEKKDRVTDALNATRAAVEEGIVLGGGCALLRCIPALDSLTPANEDQKIGIEIIKRTLKIPAMTIAKNAGVEGSLIVEKIMQSSSEVGYDAMAGDFVNMVEKGIIDPTKVVRTALLDAAGVASLLTTAEVVVTEIPKEEKDPGMGAMGGMGGGMGGGMF
For the molecule B7, the “Mean Cntl Bsl” value is recorded as 10415.4, the “Mean Cntl Wk3” value is listed as 17103.0, the “Mean TrtBsl” value came to 11806.1 and the “Mean TrtWk3” value came to 18455.9.

B8: PEX1_HUMAN (protein, UniProt O43933 1-1283, looked up)
Peroxisomal ATPase PEX1: MWGSDRLAGAGGGGAAVTVAFTNARDCFLHLPRRLVAQLHLLQNQAIEVVWSHQPAFLSWVEGRHFSDQGENVAEINRQVGQKLGLSNGGQVFLKPCSHVVSCQQVEVEPLSADDWEILELHAVSLEQHLLDQIRIVFPKAIFPVWVDQQTYIFIQIVALIPAASYGRLETDTKLLIQPKTRRAKENTFSKADAEYKKLHSYGRDQKGMMKELQTKQLQSNTVGITESNENESEIPVDSSSVASLWTMIGSIFSFQSEKKQETSWGLTEINAFKNMQSKVVPLDNIFRVCKSQPPSIYNASATSVFHKHCAIHVFPWDQEYFDVEPSFTVTYGKLVKLLSPKQQQSKTKQNVLSPEKEKQMSEPLDQKKIRSDHNEEDEKACVLQVVWNGLEELNNAIKYTKNVEVLHLGKVWIPDDLRKRLNIEMHAVVRITPVEVTPKIPRSLKLQPRENLPKDISEEDIKTVFYSWLQQSTTTMLPLVISEEEFIKLETKDGLKEFSLSIVHSWEKEKDKNIFLLSPNLLQKTTIQVLLDPMVKEENSEEIDFILPFLKLSSLGGVNSLGVSSLEHITHSLLGRPLSRQLMSLVAGLRNGALLLTGGKGSGKSTLAKAICKEAFDKLDAHVERVDCKALRGKRLENIQKTLEVAFSEAVWMQPSVVLLDDLDLIAGLPAVPEHEHSPDAVQSQRLAHALNDMIKEFISMGSLVALIATSQSQQSLHPLLVSAQGVHIFQCVQHIQPPNQEQRCEILCNVIKNKLDCDINKFTDLDLQHVAKETGGFVARDFTVLVDRAIHSRLSRQSISTREKLVLTTLDFQKALRGFLPASLRSVNLHKPRDLGWDKIGGLHEVRQILMDTIQLPAKYPELFANLPIRQRTGILLYGPPGTGKTLLAGVIARESRMNFISVKGPELLSKYIGASEQAVRDIFIRAQAAKPCILFFDEFESIAPRRGHDNTGVTDRVVNQLLTQLDGVEGLQGVYVLAATSRPDLIDPALLRPGRLDKCVYCPPPDQVSRLEILNVLSDSLPLADDVDLQHVASVTDSFTGADLKALLYNAQLEALHGMLLSSGLQDGSSSSDSDLSLSSMVFLNHSSGSDDSAGDGECGLDQSLVSLEMSEILPDESKFNMYRLYFGSSYESELGNGTSSDLSSQCLSAPSSMTQDLPGVPGKDQLFSQPPVLRTASQEGCQELTQEQRDQLRADISIIKGRYRSQSGEDESMNQPGPIKTRLAISQSHLMTALGHTRPSISEDDWKNFAELYESFQNPKRRKNQSGTMFRPGQKVTLA
With B8, the “Mean Cntl Bsl” value is listed as 2581.7, the “Mean Cntl Wk3” value was determined as 2565.0, the “Mean TrtBsl” value was 1326.8 and the “Mean TrtWk3” value was determined as 2861.3.

B9: NFH_HUMAN (protein, UniProt P12036 1-1020, looked up)
Neurofilament heavy …: MMSFGGADALLGAPFAPLHGGGSLHYALARKGGAGGTRSAAGSSSGFHSWTRTSVSSVSASPSRFRGAGAASSTDSLDTLSNGPEGCMVAVATSRSEKEQLQALNDRFAGYIDKVRQLEAHNRSLEGEAAALRQQQAGRSAMGELYEREVREMRGAVLRLGAARGQLRLEQEHLLEDIAHVRQRLDDEARQREEAEAAARALARFAQEAEAARVDLQKKAQALQEECGYLRRHHQEEVGELLGQIQGSGAAQAQMQAETRDALKCDVTSALREIRAQLEGHAVQSTLQSEEWFRVRLDRLSEAAKVNTDAMRSAQEEITEYRRQLQARTTELEALKSTKDSLERQRSELEDRHQADIASYQEAIQQLDAELRNTKWEMAAQLREYQDLLNVKMALDIEIAAYRKLLEGEECRIGFGPIPFSLPEGLPKIPSVSTHIKVKSEEKIKVVEKSEKETVIVEEQTEETQVTEEVTEEEEKEAKEEEGKEEEGGEEEEAEGGEEETKSPPAEEAASPEKEAKSPVKEEAKSPAEAKSPEKEEAKSPAEVKSPEKAKSPAKEEAKSPPEAKSPEKEEAKSPAEVKSPEKAKSPAKEEAKSPAEAKSPEKAKSPVKEEAKSPAEAKSPVKEEAKSPAEVKSPEKAKSPTKEEAKSPEKAKSPEKEEAKSPEKAKSPVKAEAKSPEKAKSPVKAEAKSPEKAKSPVKEEAKSPEKAKSPVKEEAKSPEKAKSPVKEEAKTPEKAKSPVKEEAKSPEKAKSPEKAKTLDVKSPEAKTPAKEEARSPADKFPEKAKSPVKEEVKSPEKAKSPLKEDAKAPEKEIPKKEEVKSPVKEEEKPQEVKVKEPPKKAEEEKAPATPKTEEKKDSKKEEAPKKEAPKPKVEEKKEPAVEKPKESKVEAKKEEAEDKKKVPTPEKEAPAKVEVKEDAKPKEKTEVAKKEPDDAKAKEPSKPAEKKEAAPEKKDTKEEKAKKPEEKPKTEAKAKEDDKTLSKEPSKPKAEKAEKSSSTDQKDSKPPEKATEDKAAKGK
For the molecule B9, the “Mean Cntl Bsl” value worked out at 8545.7, the “Mean Cntl Wk3” value amounted to 5412.1, the “Mean TrtBsl” value is 11145.3 and the “Mean TrtWk3” value worked out at 2920.2.

The values above are taken from US20180320217A1, “METHODS FOR SAMPLING AND MEASURING ORAL LAVAGE PROTEINS” (The Procter & Gamble Company, priority 2017, published 2018).
